# Paper doi:10.1101/168518
# Results are given in words; binding and its absence hold for the method and conditions named. Binding can be weak; no strength is given. For some of these results: Binding seen in cells or lysates may run through a third protein. For some of these results: Where a sequence is shown, tags or fusion partners need not be part of it.
# Columns and labels:
# FLAG-SEC12 = biological target: T1, FLAG-SEC12 (UniProt Q9HCU5); test: co-IP
# T1 sequence: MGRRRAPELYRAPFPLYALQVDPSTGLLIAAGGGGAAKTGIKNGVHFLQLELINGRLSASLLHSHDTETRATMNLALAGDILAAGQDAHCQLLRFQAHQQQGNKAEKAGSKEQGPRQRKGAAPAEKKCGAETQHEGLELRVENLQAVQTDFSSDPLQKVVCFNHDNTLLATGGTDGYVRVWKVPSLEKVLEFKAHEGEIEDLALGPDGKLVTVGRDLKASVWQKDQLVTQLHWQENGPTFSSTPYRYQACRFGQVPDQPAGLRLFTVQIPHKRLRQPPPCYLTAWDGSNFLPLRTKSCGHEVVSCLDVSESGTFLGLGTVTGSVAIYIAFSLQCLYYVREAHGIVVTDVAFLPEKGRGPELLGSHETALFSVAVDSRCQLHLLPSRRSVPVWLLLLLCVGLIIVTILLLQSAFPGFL
# [1] = biological target: T2, SEC12 (endogenous) (human (endogenous in HeLa)) (UniProt Q9HCU5); test: native gel or EMSA
# T2 sequence: T1 sequence
binding (FLAG-SEC12),binding [1],Substance
no binding,–,ATG16 (endogenous) (human (endogenous in HEK293T))
binds,binds,CTAGE5 (endogenous) (human (endogenous in HEK293T and HeLa))
no binding,–,ATG9 (endogenous) (human (endogenous in HEK293T))
